Here are results for 2 molecules from US20220265715A1 (EUREKA THERAPEUTICS, published 2022).

In this assay the target is T1, biotinylated AFP158/HLA-A*02:01 tetramer (human, biotinylated via the BSP peptide linked to the C-terminal end of the HLA-A*02:01 extracellular domain).
T1 construct: also called AFP158 tetramer; not shown: BSP peptide (BirA biotinylation site) at the C-terminus
Kind of assay: flow cytometry, AFP158/HLA-A*02:01 tetramer staining of CAR-transduced T cells.

B1: Anti-AFP-CD8T-CD30z-CAR (other)
chain: QSVLTQPASVSGSPGQSITISCTGTSSDVGGYNYVSWYQQHPGKAPKLMIYDVNNRPSEVSNRFSGSKSGNTASLTISGLQAEDEADYYCSSYTTGSRAVFGGGTKLTVLGSRGGGGSGGGGSGGGGSLEMAEVQLVQSGAEVKKPGESLTISCKASGYSFPNYWITWVRQMSGGGLEWMGRIDPGDSYTTYNPSFQGHVTISIDKSTNTAYLHWNSLKASDTAMYYCARYYVSLVDIWGQGTLVTVSSEQKLISEEDLAAATGTTTPAPRPPTPAPTIASQPLSLRPEACRPAAGGAVHTRGLDFACDIYIWAPLAGTCGVLLLSLVITLYCHRRACRKRIRQKLHLCYPVQTSQPKLELVDSRPRRSSTQLRSGASVTEPVAEERGLMSQPLMETCHSVGAAYLESLPLQDASPAGGPSSPRDLPEPRVSTEHTNNKIEKIYIMKADTVIVGTVKAELPEGRGLAGPAEPELEEELEADHTPHYPEQETEPPLGSCSDVMLSVEEEGKEDPLPTAASGKRVKFSRSADAPAYQQGQNQLYNELNLGRREEYDVLDKRRGRDPEMGGKPRRKNPQEGLYNELQKDKMAEAYSEIGMKGERRRGKGHDGLYQGLSTATKDTYDALHMQALPPR
notes: Chimeric antigen receptor on transduced primary human T cells: anti-AFP/MHC scFv, myc tag, CD8 TM, CD30 costimulatory domain, CD3zeta; also called αAFP -CD8T-CD30z CAR
As to B1, the binding result is recorded as “binds”.

B2: Anti-AFP-CD8T-41BBz-CAR (other)
chain: QSVLTQPASVSGSPGQSITISCTGTSSDVGGYNYVSWYQQHPGKAPKLMIYDVNNRPSEVSNRFSGSKSGNTASLTISGLQAEDEADYYCSSYTTGSRAVFGGGTKLTVLGSRGGGGSGGGGSGGGGSLEMAEVQLVQSGAEVKKPGESLTISCKASGYSFPNYWITWVRQMSGGGLEWMGRIDPGDSYTTYNPSFQGHVTISIDKSTNTAYLHWNSLKASDTAMYYCARYYVSLVDIWGQGTLVTVSSEQKLISEEDLTGTTTPAPRPPTPAPTIASQPLSLRPEACRPAAGGAVHTRGLDFACDIYIWAPLAGTCGVLLLSLVITLYCKRGRKKLLYIFKQPFMRPVQTTQEEDGCSCRFPEEEEGGCELRVKFSRSADAPAYQQGQNQLYNELNLGRREEYDVLDKRRGRDPEMGGKPRRKNPQEGLYNELQKDKMAEAYSEIGMKGERRRGKGHDGLYQGLSTATKDTYDALHMQALPPR
notes: Chimeric antigen receptor on transduced primary human T cells: anti-AFP/MHC scFv, myc tag, CD8 TM, 4-1BB costimulatory domain, CD3zeta; also called αAFP -CD8T-41BBz CAR
On to B2, for which the binding result is reported as “binds”.
